This is one part of the list. Further columns of the screen follow, without active or inactive calls. Most of these compounds were active or inconclusive in the main read-out, so they are no random draw. Words in brackets tell the shape of the fitted curve; partial curves, single points and poor fits give uncertain potencies.
Assay: qHTS Assay to Find Inhibitors of Chronic Active B-Cell Receptor Signaling
Conditions: ABC-DLBCL IkBa-CBG/CBR reporter, luminescence ratio (green luciferase fused to IkBa over red control in TMD8 lymphoma cells), 4 h
Method in brief: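 Compounds up to 46 uM were incubated four hours with TMD8 cells whose green CBG68 luciferase is fused to IkappaBalpha; red CBR luminescence normalised the signal, and concentration-effect curves were fitted to fusion, red and ratio data.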

[1] = measured here: CBR red luminescence, cell number
[2] = measured here: IkBa-CBG green luminescence

Row | SMILES | AC50 [1] | AC50 [2]
1 | Cc1ccc(-c2nnc(SCC(=O)c3ccc(Cl)cc3)n2-c2ccccc2)cc1 | 5.62 µM [rising, single point] | 
2 | COc1ccc(-c2noc(CCCC(=O)Nc3ccc(C(N)=O)cc3)n2)cc1 | 11.2 µM [falling, partial curve] | 
3 | O=c1[nH]c2ccccc2n1Cc1ccc(Cl)cc1 | 20.6 µM [rising, single point] | 
4 | CC(C)(C)SCCNC(=O)/C=C/c1cccc([N+](=O)[O-])c1 | 9.2 µM [rising, partial curve, poor fit] | 
5 | COc1ccc(Cn2cccc(NC(=O)Nc3ccc(C#N)cc3)c2=O)cc1 | 12.6 µM [rising, single point] | 
6 | Cc1ccccc1-n1c(SCC(=O)N/N=C/c2ccccc2OCC(=O)O)nc2ccccc2c1=O | 35.5 µM [falling, partial curve, poor fit] | 
7 | O=C(/C=C1\SC(=O)NC1=O)Nc1ccc(F)cc1 | 35.5 µM [falling, single point] | 
8 | CCN(CC)S(=O)(=O)c1ccc(C(=O)N2CCN(C(=O)c3ccco3)CC2)cc1 | 1.03 µM [rising, full curve, poor fit] | 
9 | CCNC(=S)NS(=O)(=O)c1ccc(Cl)cc1 | 4.11 µM [rising, partial curve, poor fit] | 
10 | O=C1NC(=O)C(Cc2c[nH]c3ccccc23)N1 (configuration not stated) | 0.0891 µM [rising, full curve, poor fit] | 
11 | CCOc1ccccc1NC(=O)Cn1nnc(C(=O)NCc2ccco2)c1N | 12.6 µM [rising, partial curve] | 3.16 µM [falling, partial curve]
12 | COC(=O)c1ccccc1NC(=S)NC(=O)c1ccc(C)cc1 | 7.31 µM [falling, partial curve] | 
13 | CC(=O)N1CCN(C(=O)c2cc3ccccc3o2)CC1 | 20 µM [rising, partial curve, poor fit] | 
14 | CC(C)(C)c1ccc(C(=O)NCCc2ccccc2)cc1 | 2 µM [rising, partial curve, poor fit] | 
15 | COC(=O)c1c(N2C(=O)Nc3ccccc3N2O)sc2c1CCCC2 | 29.1 µM [falling, single point] | 25.9 µM [rising, partial curve, poor fit]
16 | Cc1cc(C)cc(NC(=O)CSCc2cnn(-c3ccccc3)c2-n2cccc2)c1 | 3.26 µM [rising, partial curve] | 5.17 µM [falling, partial curve, poor fit]
17 | COc1ccc(C2CC(c3ccccc3)=NN2C(=O)COC(=O)c2cccc(O)c2)cc1 (configuration not stated) | 14.6 µM [falling, partial curve, poor fit] | 
18 | COc1ccccc1CCCNC(=O)C1CCC(=O)N(CCc2ccc(Cl)cc2)C1 (configuration not stated) | 35.5 µM [falling, single point] | 
19 | CCc1ccc(OCC(=O)N(Cc2ccccc2)C2CCS(=O)(=O)C2)cc1 (configuration not stated) | 6.31 µM [falling, single point] | 
20 | Cc1ccc(/C=C2\SC(N3CCN(C(c4ccccc4)c4ccccc4)CC3)=NC2=O)o1 | 29.1 µM [falling, single point] | 
21 | COc1ccc(CCNS(=O)(=O)c2cn(C)c(=O)n(C)c2=O)cc1OC | 18.4 µM [rising, partial curve, poor fit] | 

Row | SMILES | AC50 [1] | AC50 [2]
22 | CN1CCc2c(sc(NC(=O)c3cc4cc([N+](=O)[O-])ccc4s3)c2C(N)=O)C1 | 10 µM [falling, partial curve, poor fit] | 10 µM [rising, partial curve, poor fit]
23 | Brc1ccc(OCc2cn3ccccc3n2)cc1 | 5.01 µM [falling, partial curve, poor fit] | 
24 | O=C(/C=C/c1cccc(F)c1)NNC(=O)c1ccncc1 | 29.1 µM [falling, single point] | 
25 | O=C(NCc1cccnc1)c1nc(-c2ccccc2)n(-c2ccccc2)n1 | 11.2 µM [falling, single point] | 
26 | CC(C)N(C(=O)[C@H]1C[C@H](CC(=O)NCCCn2ccnc2)C(=O)N2CCc3c([nH]c4cc(-c5ccco5)ccc34)[C@]12C)C(C)C | 32.6 µM [rising, partial curve, poor fit] | 
27 | O=C(O)Cc1sc(-c2ccccc2Cl)nc1-c1ccccc1 | 22.4 µM [falling, partial curve, poor fit] | 
28 | CCOC(=O)c1cnc(NCc2ccccc2)nc1C | 20.6 µM [falling, partial curve] | 
29 | COc1ccc(CCNc2nc(Cl)nc(NC(C)(C)CO)n2)cc1OC | 3.55 µM [rising, partial curve, poor fit] | 
30 | CC1CN(S(=O)(=O)c2ccccc2)CC(C)O1 (configuration not stated) | 23.1 µM [falling, single point] | 
31 | COc1ccc(NC(=O)COC(=O)[C@@H]2CCCN2C(=O)c2cccs2)cc1 | 6.51 µM [rising, single point] | 
32 | Cc1nn(-c2ccccc2)c(Cl)c1C(=O)NNC(=O)c1ccccc1O | 29.1 µM [falling, single point] | 
33 | CC(C)C(=O)Nc1ccc2c(c1)Cc1cc(NC(=O)C(C)C)ccc1-2 | 8.91 µM [rising, partial curve] | 
34 | Cc1ccc(-n2nc(C)c3c2OC(N)=C(C#N)C3c2ccoc2)cc1 (configuration not stated) | 11.2 µM [falling, partial curve, poor fit] | 
35 | Cc1cnc(NC(=O)CN2CCN(c3ccccn3)CC2)s1 | 10 µM [falling, partial curve, poor fit] | 
36 | O=C(c1ccccc1)N1CCN(c2n[nH]c(=O)[nH]c2=O)CC1 | 2.82 µM [falling, partial curve, poor fit] | 
37 | Cc1cccc(NC(=O)COc2ccccc2C)n1 | 0.116 µM [rising, full curve, poor fit] | 
38 | COc1ccc2[nH]c3c(c2c1)CCN1C(=O)C(CC(=O)NCCC2=CCCCC2)C[C@H](C(=O)N2CCCCC2)[C@@]31CCc1ccccc1 (some centres not stated) | 29.1 µM [rising, single point] | 
39 | O=C(Cc1ccccc1)N1CCC(c2nc3ccccc3[nH]2)CC1 | 29.1 µM [rising, partial curve, poor fit] | 
40 | COc1cccc(C(=O)N2CCN(C(=O)c3cccc4ccccc34)CC2)c1OC | 14.1 µM [rising, partial curve, poor fit] | 
41 | CCCCCc1ccc(OCCCC[n+]2ccccc2)c(CCCCC)c1 | 20 µM [falling, single point] | 
42 | COc1ccc(NC(=O)COC(=O)Cn2cnc3ccccc3c2=O)cc1OC | 3.55 µM [rising, partial curve, poor fit] | 

2 compounds picked at random from those above:
Row | SMILES | AC50 [1] | AC50 [2]
25 | O=C(NCc1cccnc1)c1nc(-c2ccccc2)n(-c2ccccc2)n1 | 11.2 µM [falling, single point] | 
10 | O=C1NC(=O)C(Cc2c[nH]c3ccccc23)N1 (configuration not stated) | 0.0891 µM [rising, full curve, poor fit] | 

Following part:

Row | SMILES | AC50 [1] | AC50 [2]
43 | O=c1oc2ccccc2nc1/C=C(\O)c1ccccc1 | 12.6 µM [falling, partial curve, poor fit] | 
44 | C=CCNC(=O)C1CC1(c1ccc(C)cc1)c1ccc(C)cc1 (configuration not stated) | 35.5 µM [falling, single point] | 
45 | Cc1ccc(NC(=O)Cc2nc(COC(=O)Cc3cccc(C(F)(F)F)c3)cs2)cc1 | 29.1 µM [rising, single point] | 
46 | Cc1ccc(NC(=O)C2=NNC(=O)CC2)cc1F | 35.5 µM [falling, single point] | 
47 | CC(=O)[C@@]1(O)CC[C@H]2[C@@H]3C[C@H](C)C4=CC(=O)CC[C@]4(C)[C@H]3CC[C@@]21C | 0.0058 µM [rising, full curve, poor fit] | 
48 | CS(=O)(=O)N(CC(=O)Nc1ccccc1C(=O)NCc1ccco1)c1ccc2c(c1)OCCO2 | 29.1 µM [falling, single point] | 
49 | COc1cc(C(Nc2ccccn2)c2ccc3ccc(C)nc3c2O)cc(OC)c1O (configuration not stated) | 2.24 µM [falling, full curve, poor fit] | 
50 | O=C(Nc1ccccc1O)c1ccc([N+](=O)[O-])cc1 | 7.94 µM [falling, partial curve] | 
51 | Cc1cccc(NC(=O)c2ccc(C3SCC(=O)N3CCc3ccccc3)cc2)c1C (configuration not stated) | 5.8 µM [falling, partial curve, poor fit] | 
52 | CC(C)CNC(=O)c1ccccc1NC(=O)c1ccc(CSc2ccccc2)cc1 | 16.4 µM [rising, partial curve] | 
53 | O=C(/C=C/c1cccc(O)c1)c1cccnc1 | 14.1 µM [falling, partial curve, poor fit] | 
54 | S=c1nn[nH]n1C12CC3CC(CC(C3)C1)C2 | 11.6 µM [rising, partial curve] | 8.2 µM [falling, partial curve]
55 | O=C(CC1Nc2cccc3cccc(c23)NC1=O)Nc1ccccc1 (configuration not stated) | 0.58 µM [falling, full curve] | 
56 | CCc1ccc(OCC(=O)NNC(=O)Cc2ccc(S(=O)(=O)N3CCOCC3)s2)cc1 | 29.1 µM [rising, single point] | 
57 | O=c1[nH]c2ccccc2cc1CN(Cc1ccco1)S(=O)(=O)c1ccc(F)cc1 | 11.2 µM [falling, partial curve] | 
58 | COc1cccc(/C=N/n2cnc3ccccc32)c1OC | 2.91 µM [rising, partial curve] | 
59 | CCc1cc2c(SCC(=O)NC3CC3)ncnc2s1 | 29.1 µM [rising, single point] | 23.1 µM [falling, partial curve]
60 | O=C(Nc1cccc(S(=O)(=O)NC2=NCCCCC2)c1)c1ccc(Cl)cc1 | 7.31 µM [falling, single point] | 
61 | Cc1cc(NC(=O)c2cccs2)no1 | 14.1 µM [falling, single point] | 

A draw from above in order of length of the SMILES, falling.
Row | SMILES | AC50 [1] | AC50 [2]
57 | O=c1[nH]c2ccccc2cc1CN(Cc1ccco1)S(=O)(=O)c1ccc(F)cc1 | 11.2 µM [falling, partial curve] | 
43 | O=c1oc2ccccc2nc1/C=C(\O)c1ccccc1 | 12.6 µM [falling, partial curve, poor fit] | 
53 | O=C(/C=C/c1cccc(O)c1)c1cccnc1 | 14.1 µM [falling, partial curve, poor fit] | 
